One purity is given for all peptides; the source may state it once.
Key:
[1] = general procedure: Fmoc solid-phase peptide synthesis; Wang; TBTU/HOBt/DIPEA; HBTU/HOBt/DIPEA; settings: whole synthesis, LC-MS, scale 0.25 mmol
[2] = general procedure: Fmoc solid-phase peptide synthesis; Fmoc-Asp(OBut)-OPEG-PS resin (0.14 mmole/g); Fmoc-Asp(OBut)-Wang resin (0.76 mmol/g); TBTU/HOBt/DIPEA; HBTU/HOBt/DIPEA; settings: whole synthesis, scale of the general procedure 0.0760 mmol, 0.0228 mmole, 0.25 mmol

Substance	final LC-MS purity [1] [%]	final LC-MS purity [2] [%]
Decanoyl-Lys(Flu)-Thr-Pro-Thr-Ala-Lys-Ala-Ala-Ser-Lys-Lys(Bio-X)-Asp-Asp-OH (KTPTAKAASKKDD)	>90	
Decanoyl-Leu-Thr-Pro-Lys(Bio-X)-Ala-Lys-Ala-Ala-Ser-Lys-Lys(Flu)-Asp-Asp-OH (LTPKAKAASKKDD)		>90
Decanoyl-Leu-Thr-Pro-Lys(Bio-X)-Ala-Lys-Ala-Ala-Ser-Lys-Ile-Asp-Asp-Gly-Lys(Flu)-Asp-OH (LTPKAKAASKIDDGKD)		>90
Decanoyl-Lys(Bio-X)-Thr-Pro-Thr-Ala-Lys-Ala-Ala-Ser-Lys-Ile-Asp-Asp-Gly-Lys(Flu)-Asp-OH (KTPTAKAASKIDDGKD)		>90
